Data reported in article doi:10.1101/2021.03.03.433707.
No constants are given. Whether binding was seen depends on the method and setting.

Molecular target: T1, MatPΔ18C (printed MatPA18C; 1-132) (E. coli) (UniProt P0A8N0)
T1 sequence: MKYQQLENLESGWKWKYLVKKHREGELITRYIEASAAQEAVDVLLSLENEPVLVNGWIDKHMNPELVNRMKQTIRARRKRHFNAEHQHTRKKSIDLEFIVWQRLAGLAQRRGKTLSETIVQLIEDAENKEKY
Test: native MS

B1: ParC, full length (enzyme, UniProt P0AFI2 1-752)
chain: MSDMAERLALHEFTENAYLNYSMYVIMDRALPFIGDGLKPVQRRIVYAMSELGLNASAKFKKSARTVGDVLGKYHPHGDSACYEAMVLMAQPFSYRYPLVDGQGNWGAPDDPKSFAAMRYTESRLSKYSELLLSELGQGTADWVPNFDGTLQEPKMLPARLPNILLNGTTGIAVGMATDIPPHNLREVAQAAIALIDQPKTTLDQLLDIVQGPDYPTEAEIITSRAEIRKIYENGRGSVRMRAVWKKEDGAVVISALPHQVSGARVLEQIAAQMRNKKLPMVDDLRDESDHENPTRLVIVPRSNRVDMDQVMNHLFATTDLEKSYRINLNMIGLDGRPAVKNLLEILSEWLVFRRDTVRRRLNYRLEKVLKRLHILEGLLVAFLNIDEVIEIIRNEDEPKPALMSRFGLTETQAEAILELKLRHLAKLEEMKIRGEQSELEKERDQLQGILASERKMNNLLKKELQADAQAYGDDRRSPLQEREEAKAMSEHDMLPSEPVTIVLSQMGWVRSAKGHDIDAPGLNYKAGDSFKAAVKGKSNQPVVFVDSTGRSYAIDPITLPSARGQGEPLTGKLTLPPGATVDHMLMESDDQKLLMASDAGYGFVCTFNDLVARNRAGKALITLPENAHVMPPVVIEDASDMLLAITQAGRMLMFPVSDLPQLSKGKGNKIINIPSAEAARGEDGLAQLYVLPPQSTLTIHVGKRKIKLRPEELQKVTGERGRRGTLMRGLQRIDRVEIDSPRRASSGDSEE
Question: For B1, which binding is on record?
Answer: The binding was “no binding”.
